Results from PMC12901311, “HEXIM1 inter-monomer autoinhibition governs 7SK RNA binding specificity and P-TEFb inactivation” (Nature Communications, 2024).
No constants are given. Whether binding was seen depends on the method and setting.

Biological target: Hexim1 BR-L-AR(S183C-MTSL) (human, UniProt O94992 142-253, S183C)
Assay: condition: only with SL1-dI RNA (1:1.2 protein:RNA ratio); paramagnetic relaxation enhancement (PRE) NMR; total interaction experiment on 15N BR-L-AR(S183C^MTSL) in the presence of SL1-dI RNA (1:1.2 protein:RNA ratio); both purified

B1: Hexim1 BR-L-AR(S183C^MTSL) (domain or fragment, human)
chain: GGQQQRQLGKKKHRRRPSKKKRHWKPYYKLTWEEKKKFDEKQCLRASRIRAEMFAKGQPVAPYNTTQFLMDDHDQEEPDLKTGLYSKRAAAKSDDTSDDDFMEEGGEEDGGSD
modifications: MTSL nitroxide spin label on C183
notes: non-native glycine that remains at the N-terminus of BR-L-AR after TEV protease cleavage; Hexim1, human, residues 142-253 (BR-L-AR) with S183C; 15N-labelled; not shown: His6, N-terminal, cleaved; MBP, N-terminal, cleaved
  binding: no binding
